Source: patent US20140314670 (published 2014)

Experiment: general procedure: Fmoc solid-phase peptide synthesis; H-L-Thr(t-Bu)-ol-2-chlorotrityl resin; HOBt/HBTU with NMM; HATU for unnatural amino acids and DOTA
Details: whole synthesis, RP-HPLC, Kinetex 2.6 um C18 column, cyclic, sequence written open

D-Phe-Abu(γ-N3)-L-Tyr-D-Trp-L-Lys(Dde)-L-Thr-L-amino-5-pentanoic-acid-L-Thr(ol)
final HPLC purity: >95%
